In PubChem BioAssay AID1487 (National Center for Advancing Translational Sciences (NCATS), 2009):
Values joined by “and” are separate entries in the source; they are usually repeats but may differ in a detail not shown here. Equal values may be shown once. This is one part of the list. The main result of the screen is listed elsewhere. These columns were measured beside it and carry no call. Compounds called inactive in the main read-out are mostly missing here. The note in brackets gives the kind of curve behind each potency; many fits are weak.

Experiment: qHTS Assay for Modulators of Lamin A Splicing
Details: HeLa LMNA splicing GFP/RFP minigene ratio, 48 h
Procedure, shortened: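 S3 HeLa stable clones carrying a lamin A-EGFP splicing minigene plus DsRed2 were seeded at 600 cells/well in Opti-MEM with 2% FBS, pin-dosed and incubated 48 h at 37°C. Acumen cytometry (488 nm) gave the GFP/RFP total-intensity ratio.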

[1] = measured here: GFP splicing reporter channel
[2] = measured here: RFP viability control channel

Row | Compound | AC50 [1] | AC50 [2]
1 | COc1ccc(/C=N/Nc2nc(-c3cccc(S(=O)(=O)N4CCCC4)c3)cs2)cc1OC | 5.01 µM [rising, partial curve] | 10 µM [rising, partial curve]
2 | CCN(CC)C(=O)C1CC(=O)OC1(C)C (stereo not drawn) | 15.8 µM [falling, single point] | 20 µM [falling, single point]
3 | CC(C)CCNC(=O)c1cccc(S(=O)(=O)N2CCc3ccccc32)c1 | 17.8 µM [rising, partial curve, poor fit] | 15.8 µM [rising, single point]
4 | CCOc1ccc(S(=O)(=O)NCCC(=O)NC2=NCCS2)cc1 | – | 31.6 µM [rising, single point]
5 | O=C(NC12CC3CC(CC(C3)C1)C2)c1ccc(-c2cccc(Cl)c2)o1 | 12.6 µM [rising, partial curve] | 14.1 µM [rising, partial curve]
6 | COc1ccc(CC(=O)NCCc2sc(-c3ccc(Cl)cc3)nc2C)cc1OC | – | 8.91 µM [falling, full curve, poor fit]
7 | Cc1[nH]c2ccccc2c1C(c1ccccn1)N1CCC(C)CC1 (stereo not drawn) | 17.8 µM [falling, partial curve] | –
8 | Clc1c(CSc2nc3ccccc3o2)nc2sccn12 | – | 35.5 µM [rising, single point]
9 | Cc1cccc(-n2c(SCC(N)=O)nc3c(c2=O)C2(CCCC2)Cc2ccccc2-3)c1 | – | 14.1 µM [rising, single point]
10 | CCN(CC)c1ccc(/C=N/OCC(=O)N2CCCc3ccccc32)cc1 | – | 2.51 µM [rising, full curve, poor fit]
11 | CC(C)c1nc(N(C)S(C)(=O)=O)nc(-c2ccc(F)cc2)c1/C=C/C(O)CC(O)CC(=O)O (stereo not drawn) | 0.0178 µM [falling, full curve, poor fit] | –
12 | Cc1cc(C)c2c(CN3CCN(Cc4ccc5c(c4)OCO5)CC3)cc(=O)oc2c1 | 1 µM [rising, partial curve] | 14.1 µM [rising, single point]
13 | O=c1c(Cc2c(F)cccc2Cl)c(O)ccn1C1CC1 | – | 0.01 µM [falling, full curve, poor fit]
14 | CC(=O)NC(c1ccccc1)c1cc([N+](=O)[O-])c2cccnc2c1O (stereo not drawn) | 0.631 µM [falling, full curve, poor fit] | 2.82 µM [falling, partial curve, poor fit]
15 | CN=c1scc(C)n1/N=C/c1ccc(O)cc1 | – | 2.24 µM [rising, partial curve, poor fit]
16 | CC1=C(C(=O)OC(C)C)C(c2cncc(-c3ccc(F)cc3)c2)C(C#N)=C(N)O1 (stereo not drawn) | 3.16 µM [rising, partial curve, poor fit] | –
17 | CCC(C(=O)N1CCN(c2ccccn2)CC1)n1nc(C)n2c(cc3occc32)c1=O (stereo not drawn) | – | 14.1 µM [falling, partial curve, poor fit]
18 | COc1ccc(NC(=O)C(=O)NCCc2sc(-c3ccc(Cl)cc3)nc2C)cc1 | – | 3.55 µM [falling, partial curve]
19 | O=C(Nc1ccccc1Cl)OCc1cncs1 | 1.58 µM [rising, partial curve, poor fit] | –
20 | CCCCCn1c(NC(=O)c2ccco2)c(S(=O)(=O)c2ccc(C)cc2)c2nc3ccccc3nc21 | 14.1 µM [rising, partial curve] | 25.1 µM [rising, single point]
21 | CC(C)(C)n1nc2c(c1NC(=O)COc1ccc3ccccc3c1)CS(=O)(=O)C2 | – | 4.47 µM [falling, single point]
22 | Cc1ccc(S(=O)(=O)N2CCN(C(C)C(=O)N3CCCc4ccccc43)CC2)cc1 (stereo not drawn) | 35.5 µM [falling, single point] | 35.5 µM [falling, single point]
23 | CC1=Nc2ccccc2/C1=C/c1sc(=N)n(-c2nccs2)c1O | – | 35.5 µM [rising, partial curve]
24 | CN1CCCN(C(c2ccccc2)c2ccc(Cl)cc2)CC1 (stereo not drawn) | 10 µM [falling, partial curve, poor fit] and 1.12 µM [falling, partial curve, poor fit] | 10 nM [rising, full curve, poor fit] and 44.7 nM [falling, full curve]
25 | Cc1ccc(C(=O)C(C(=O)/C=C/c2ccccc2)=C2SCCCS2)cc1 | – | 35.5 µM [falling, single point]
26 | C=CCn1c(SCc2c(C)noc2C)nc2sc3c(c2c1=O)CCC(C)C3 (stereo not drawn) | 1.12 µM [rising, partial curve, poor fit] | –
27 | CCOC(=O)c1sc(SC)nc1N | – | 0.0126 µM [rising, full curve, poor fit]

Row | Compound | AC50 [1] | AC50 [2]
28 | O=C(Cc1ccccc1)N1CCC(c2nc(-c3ccc(F)cc3)no2)CC1 | 0.501 µM [rising, full curve, poor fit] | 17.8 µM [rising, partial curve]
29 | COc1ccc([N+](=O)[O-])cc1NC(=O)C(C)OC(=O)/C=C/c1ccco1 (stereo not drawn) | – | 20 µM [rising, single point]
30 | CCOC(=O)CSC1=Nc2ccccc2C2=NC(CC(=O)NCc3ccc4c(c3)OCO4)C(=O)N12 (stereo not drawn) | – | 0.0631 µM [rising, full curve, poor fit]
31 | c1ccc(CC2CCN(Cc3nc(-c4ccccc4)no3)CC2)cc1 | 11.2 µM [rising, single point] | 15.8 µM [rising, single point]
32 | Clc1ccc(OCCOCCOc2cccc3cccnc23)c(Br)c1 | – | 17.8 µM [rising, partial curve]
33 | Cc1ccc(OCC(=O)NNC(=O)C(=O)N2CCCC2)c(C)c1 | 0.126 µM [rising, full curve, poor fit] | 0.158 µM [rising, full curve]
34 | Cc1ccc(C)c(NC(=O)Cn2nnc(-c3ccc(N4CCOCC4)cc3)n2)c1 | – | 0.141 µM [rising, full curve, poor fit]
35 | Cc1ccc(C(=O)Nc2sc(Cc3ccc4c(c3)OCO4)c(C)c2C(N)=O)cc1 | – | 22.4 µM [rising, single point]
36 | CCc1cc2c(=O)[nH]c(-c3ccccn3)nc2s1 | 4.47 µM [rising, full curve, poor fit] | 5.01 µM [rising, full curve]
37 | CCNC(=S)N(CCc1c(C)[nH]c2ccc(C)cc12)Cc1cc(OC)c(OC)c(OC)c1 | 2.82 µM [rising, full curve, poor fit] | 8.91 µM [rising, partial curve]
38 | Cc1nc2ccc(S(=O)(=O)N(C)CC(=O)N3CCc4ccccc4C3)cc2s1 | 5.62 µM [rising, partial curve] | 12.6 µM [rising, single point]
39 | CCOn1c(=O)c(-c2cccc3ccccc23)[n+]([O-])c2ccccc21 | – | 5.62 µM [rising, single point]
40 | CCOC(=O)c1c(C)oc2nc(C)nc(N(CC(C)C)CC(C)C)c12 | 31.6 µM [falling, partial curve] | 22.4 µM [falling, partial curve, poor fit]
41 | CCC1(c2ccccc2)NC(=O)N(Cc2cccc([N+](=O)[O-])c2)C1=O (stereo not drawn) | 0.01 µM [falling, full curve, poor fit] | –
42 | O=C(c1ccccc1)c1cccc(NC(=O)c2ccco2)c1 | 8.91 µM [rising, partial curve] | –
43 | CC1=NN(c2ccccc2)C(=O)/C1=C\c1cn(C)c2ccccc12 | – | 2.24 µM [rising, partial curve, poor fit]
44 | COc1ccc2[nH]c(C)c(CCN(Cc3cccs3)C(=S)Nc3ccc(F)cc3)c2c1 | – | 12.6 µM [rising, partial curve]
45 | Cc1ccc(C(=O)NCC(=O)OCC(=O)N2CCCc3ccccc32)cc1 | 11.2 µM [rising, partial curve] | –
46 | COc1ccc(NC(=S)Nc2ccc(C)c(S(=O)(=O)N3CCCCC3)c2)cc1 | 14.1 µM [rising, single point] | 17.8 µM [rising, partial curve]
47 | CCCCN(C)S(=O)(=O)c1cc(Br)cc2c1N(C(=O)C1CC1)CC2 | – | 17.8 µM [rising, single point]
48 | O=C(c1ccc(Cn2c(=O)[nH]c3ccccc3c2=O)cc1)N1CCN(c2ccc(F)cc2)CC1 | – | 35.5 µM [rising, single point]
49 | COc1ccc(CCNC(=O)Cn2c(=O)cc(C(F)(F)F)c3c(C)nn(C)c32)cc1OC | – | 15.8 µM [rising, partial curve, poor fit]
50 | CCOc1ccc(NC(=S)NC(C)CCc2ccccc2)cc1 (stereo not drawn) | – | 0.501 µM [rising, single point]
51 | COc1ccc(-c2noc(N(C)CC(=O)Nc3cccc(C(F)(F)F)c3)n2)cc1 | 35.5 µM [falling, single point] | 35.5 µM [falling, single point]
52 | CC(C)Cn1c(N)c(C(=O)COC(=O)c2cc(F)cc(F)c2)c(=O)n(C)c1=O | – | 0.891 µM [rising, full curve, poor fit]
53 | Cc1cccc(C)c1OCC(=O)N/N=C/c1ccncc1 | – | 5.62 µM [rising, partial curve, poor fit]
54 | Cc1ccc(C)c(CSC2=NC(C)(C)Nc3ccccc32)c1 | 12.6 µM [falling, partial curve] | 10 µM [falling, partial curve]

Reformatted tab-delimited: two of the compounds above.
Row	Compound	AC50 [1]	AC50 [2]
3	CC(C)CCNC(=O)c1cccc(S(=O)(=O)N2CCc3ccccc32)c1	17.8 µM [rising, partial curve, poor fit]	15.8 µM [rising, single point]
7	Cc1[nH]c2ccccc2c1C(c1ccccn1)N1CCC(C)CC1 (stereo not drawn)	17.8 µM [falling, partial curve]	–
